Experimental data published in patent US20230416345A1, “NEW TYPE II COLLAGEN BINDING PROTEINS” (Navigo Proteins GmbH, priority 2020, published 2023).
Results are given in words; binding and its absence hold for the method and conditions named. Some entries that bind do so weakly or less than the wild type.

Protein sequences, listed by entry. Tags and fused reporters are not part of them. Lines headed by an entry give the natural chain unless they say otherwise; changes in a name come on top. Residues count along the entry.
UniProt P02452: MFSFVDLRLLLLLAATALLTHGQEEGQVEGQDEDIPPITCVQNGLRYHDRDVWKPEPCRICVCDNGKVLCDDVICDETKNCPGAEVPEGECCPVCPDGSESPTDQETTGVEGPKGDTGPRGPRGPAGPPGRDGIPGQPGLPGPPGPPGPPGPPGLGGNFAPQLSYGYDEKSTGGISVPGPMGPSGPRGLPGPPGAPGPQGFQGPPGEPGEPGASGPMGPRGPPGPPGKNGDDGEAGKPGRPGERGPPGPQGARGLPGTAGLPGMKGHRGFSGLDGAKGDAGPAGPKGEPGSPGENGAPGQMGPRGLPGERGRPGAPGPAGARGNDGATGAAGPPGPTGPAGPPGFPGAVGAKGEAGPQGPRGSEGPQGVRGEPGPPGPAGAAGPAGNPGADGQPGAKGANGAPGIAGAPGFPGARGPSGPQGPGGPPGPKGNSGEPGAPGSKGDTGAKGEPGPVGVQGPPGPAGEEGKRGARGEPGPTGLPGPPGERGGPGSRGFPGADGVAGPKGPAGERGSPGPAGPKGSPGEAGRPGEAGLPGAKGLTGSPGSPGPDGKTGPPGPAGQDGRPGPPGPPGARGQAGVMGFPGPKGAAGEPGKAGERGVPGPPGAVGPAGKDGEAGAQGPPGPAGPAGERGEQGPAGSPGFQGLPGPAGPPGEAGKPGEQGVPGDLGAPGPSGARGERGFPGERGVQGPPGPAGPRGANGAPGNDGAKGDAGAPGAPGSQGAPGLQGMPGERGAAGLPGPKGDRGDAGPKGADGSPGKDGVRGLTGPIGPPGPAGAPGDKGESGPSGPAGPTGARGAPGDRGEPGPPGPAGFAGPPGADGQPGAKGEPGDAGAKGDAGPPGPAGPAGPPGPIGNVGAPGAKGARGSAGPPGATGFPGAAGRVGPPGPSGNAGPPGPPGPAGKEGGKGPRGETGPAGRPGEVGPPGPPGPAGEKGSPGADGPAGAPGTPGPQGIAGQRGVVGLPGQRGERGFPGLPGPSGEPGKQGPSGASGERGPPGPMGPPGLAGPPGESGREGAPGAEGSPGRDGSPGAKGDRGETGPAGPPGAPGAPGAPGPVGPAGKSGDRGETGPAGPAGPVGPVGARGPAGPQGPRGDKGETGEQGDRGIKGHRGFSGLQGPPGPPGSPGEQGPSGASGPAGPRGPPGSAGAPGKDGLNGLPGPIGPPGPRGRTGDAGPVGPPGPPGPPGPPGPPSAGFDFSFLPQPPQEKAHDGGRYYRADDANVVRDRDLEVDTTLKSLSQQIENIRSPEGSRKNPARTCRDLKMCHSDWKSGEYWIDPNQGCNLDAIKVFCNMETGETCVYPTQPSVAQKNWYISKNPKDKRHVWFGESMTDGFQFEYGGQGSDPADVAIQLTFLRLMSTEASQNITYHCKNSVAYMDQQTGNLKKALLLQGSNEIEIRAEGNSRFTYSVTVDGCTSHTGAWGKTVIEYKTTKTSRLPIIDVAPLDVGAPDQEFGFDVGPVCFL
UniProt P08123: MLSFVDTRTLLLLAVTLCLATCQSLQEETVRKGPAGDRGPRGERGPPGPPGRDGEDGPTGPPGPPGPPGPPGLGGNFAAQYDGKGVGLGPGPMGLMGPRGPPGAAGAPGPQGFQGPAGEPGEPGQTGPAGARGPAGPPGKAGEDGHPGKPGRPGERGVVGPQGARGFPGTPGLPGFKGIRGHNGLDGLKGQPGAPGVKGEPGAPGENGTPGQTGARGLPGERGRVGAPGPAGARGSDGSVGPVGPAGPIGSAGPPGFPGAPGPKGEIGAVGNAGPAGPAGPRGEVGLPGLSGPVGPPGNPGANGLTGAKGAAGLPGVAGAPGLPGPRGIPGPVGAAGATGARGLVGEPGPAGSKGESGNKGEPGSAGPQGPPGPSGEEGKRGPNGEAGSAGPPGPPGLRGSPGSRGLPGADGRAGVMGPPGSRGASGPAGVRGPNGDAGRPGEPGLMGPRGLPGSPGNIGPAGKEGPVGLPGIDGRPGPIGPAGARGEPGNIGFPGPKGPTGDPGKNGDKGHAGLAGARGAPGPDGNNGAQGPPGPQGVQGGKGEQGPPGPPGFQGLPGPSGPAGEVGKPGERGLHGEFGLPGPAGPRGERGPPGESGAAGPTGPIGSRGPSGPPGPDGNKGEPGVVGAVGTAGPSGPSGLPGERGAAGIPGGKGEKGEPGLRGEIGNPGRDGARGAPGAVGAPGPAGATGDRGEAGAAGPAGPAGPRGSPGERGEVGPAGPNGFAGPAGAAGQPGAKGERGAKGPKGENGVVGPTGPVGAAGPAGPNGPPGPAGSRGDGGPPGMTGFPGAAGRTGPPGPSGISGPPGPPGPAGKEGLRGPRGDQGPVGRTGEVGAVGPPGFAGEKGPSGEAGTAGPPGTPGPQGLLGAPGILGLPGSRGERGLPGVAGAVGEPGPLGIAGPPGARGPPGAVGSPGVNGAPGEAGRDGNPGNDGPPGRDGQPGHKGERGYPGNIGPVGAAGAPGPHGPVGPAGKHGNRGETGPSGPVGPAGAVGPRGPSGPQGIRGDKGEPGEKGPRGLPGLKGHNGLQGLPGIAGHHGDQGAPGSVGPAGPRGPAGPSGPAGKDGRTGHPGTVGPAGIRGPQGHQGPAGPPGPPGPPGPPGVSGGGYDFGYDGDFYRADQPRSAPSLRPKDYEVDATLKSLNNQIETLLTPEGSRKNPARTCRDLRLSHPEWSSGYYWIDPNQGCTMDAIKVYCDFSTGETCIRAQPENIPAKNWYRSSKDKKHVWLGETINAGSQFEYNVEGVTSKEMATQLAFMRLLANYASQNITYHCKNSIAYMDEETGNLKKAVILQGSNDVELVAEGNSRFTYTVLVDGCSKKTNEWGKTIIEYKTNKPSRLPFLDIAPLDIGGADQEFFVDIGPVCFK
UniProt P02461, residues 154-1221: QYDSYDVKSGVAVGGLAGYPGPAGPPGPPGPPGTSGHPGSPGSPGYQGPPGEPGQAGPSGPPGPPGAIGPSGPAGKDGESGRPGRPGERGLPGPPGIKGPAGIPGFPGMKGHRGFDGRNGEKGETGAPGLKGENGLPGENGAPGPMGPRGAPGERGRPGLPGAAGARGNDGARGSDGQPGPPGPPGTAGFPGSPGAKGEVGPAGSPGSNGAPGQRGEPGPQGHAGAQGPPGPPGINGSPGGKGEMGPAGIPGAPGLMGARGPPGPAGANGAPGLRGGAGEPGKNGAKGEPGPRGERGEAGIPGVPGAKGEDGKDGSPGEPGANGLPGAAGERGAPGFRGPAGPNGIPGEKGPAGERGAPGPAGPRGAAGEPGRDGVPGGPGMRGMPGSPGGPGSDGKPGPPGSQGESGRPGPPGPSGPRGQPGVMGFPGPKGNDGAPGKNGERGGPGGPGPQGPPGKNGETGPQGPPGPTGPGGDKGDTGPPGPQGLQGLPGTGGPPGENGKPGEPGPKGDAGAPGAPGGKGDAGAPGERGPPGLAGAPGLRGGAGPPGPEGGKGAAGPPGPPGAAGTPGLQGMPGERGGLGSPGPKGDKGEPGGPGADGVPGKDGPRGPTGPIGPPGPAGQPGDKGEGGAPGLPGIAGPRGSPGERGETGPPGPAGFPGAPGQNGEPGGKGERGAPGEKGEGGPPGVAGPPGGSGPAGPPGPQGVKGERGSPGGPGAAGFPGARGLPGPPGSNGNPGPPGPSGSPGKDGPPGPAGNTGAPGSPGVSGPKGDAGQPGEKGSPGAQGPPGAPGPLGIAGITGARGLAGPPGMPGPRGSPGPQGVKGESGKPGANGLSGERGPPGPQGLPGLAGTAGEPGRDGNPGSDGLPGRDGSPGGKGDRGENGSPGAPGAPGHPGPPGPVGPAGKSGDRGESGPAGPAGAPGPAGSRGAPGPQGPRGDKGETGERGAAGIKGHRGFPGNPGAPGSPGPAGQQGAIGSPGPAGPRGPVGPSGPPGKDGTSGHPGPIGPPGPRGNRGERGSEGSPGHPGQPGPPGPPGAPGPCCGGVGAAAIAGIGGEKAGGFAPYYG

What was measured:
[1] = molecular target: T1, human collagen type I (human) (UniProt P02452+P08123); test: SPR (Biacore 3000)
[2] = molecular target: human collagen type III (human) (UniProt P02461); test: SPR (Biacore 3000)
[3] = molecular target: T1, human collagen type I (human); test: ELISA
[4] = molecular target: human collagen type III (human) (UniProt P02461); test: ELISA

Measured: binding

B1: 211190 (SEQ ID NO: 1) (designed binder, not shown: small tags and cut ends)
chain: NAASHDEAQLSALVEIWDLPNLTTRQKQKFIYSLQRDPSVSKEVLGEAQKLNDSQAPK
binds: all assays above
